Measured values taken from the supplement of paper PMC10849652.
This is one part of the list.

Sequences of proteins named here, by UniProt entry; tags and fusion partners are left off. A change or cut given only in a name is not applied to a line headed by its entry.
UniProt Q01650: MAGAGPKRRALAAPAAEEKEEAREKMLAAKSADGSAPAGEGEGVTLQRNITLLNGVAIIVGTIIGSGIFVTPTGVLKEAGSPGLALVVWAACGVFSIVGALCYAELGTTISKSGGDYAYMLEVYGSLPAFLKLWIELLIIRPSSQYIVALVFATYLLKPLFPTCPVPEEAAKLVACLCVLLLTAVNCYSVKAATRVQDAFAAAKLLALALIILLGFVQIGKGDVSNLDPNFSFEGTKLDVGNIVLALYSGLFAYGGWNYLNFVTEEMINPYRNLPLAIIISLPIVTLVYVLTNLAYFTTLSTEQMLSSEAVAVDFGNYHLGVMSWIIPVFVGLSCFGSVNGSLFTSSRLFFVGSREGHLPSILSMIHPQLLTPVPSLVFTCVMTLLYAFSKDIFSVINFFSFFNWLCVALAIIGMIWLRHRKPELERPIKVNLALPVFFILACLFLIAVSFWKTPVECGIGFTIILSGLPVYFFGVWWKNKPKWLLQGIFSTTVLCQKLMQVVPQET
UniProt Q92536: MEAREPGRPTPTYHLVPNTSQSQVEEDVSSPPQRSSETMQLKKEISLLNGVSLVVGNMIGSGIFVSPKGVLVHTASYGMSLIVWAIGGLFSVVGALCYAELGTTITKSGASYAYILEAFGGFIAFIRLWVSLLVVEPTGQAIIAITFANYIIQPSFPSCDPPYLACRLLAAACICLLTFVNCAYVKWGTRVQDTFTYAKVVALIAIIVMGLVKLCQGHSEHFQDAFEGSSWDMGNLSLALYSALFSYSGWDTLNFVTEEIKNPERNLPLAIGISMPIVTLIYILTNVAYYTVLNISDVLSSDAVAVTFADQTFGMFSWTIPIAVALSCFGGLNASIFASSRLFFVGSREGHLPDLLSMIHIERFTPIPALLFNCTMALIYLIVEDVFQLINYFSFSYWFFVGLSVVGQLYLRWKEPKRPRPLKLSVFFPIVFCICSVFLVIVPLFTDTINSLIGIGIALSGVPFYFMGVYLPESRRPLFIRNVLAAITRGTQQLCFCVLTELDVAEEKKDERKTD
UniProt P04920: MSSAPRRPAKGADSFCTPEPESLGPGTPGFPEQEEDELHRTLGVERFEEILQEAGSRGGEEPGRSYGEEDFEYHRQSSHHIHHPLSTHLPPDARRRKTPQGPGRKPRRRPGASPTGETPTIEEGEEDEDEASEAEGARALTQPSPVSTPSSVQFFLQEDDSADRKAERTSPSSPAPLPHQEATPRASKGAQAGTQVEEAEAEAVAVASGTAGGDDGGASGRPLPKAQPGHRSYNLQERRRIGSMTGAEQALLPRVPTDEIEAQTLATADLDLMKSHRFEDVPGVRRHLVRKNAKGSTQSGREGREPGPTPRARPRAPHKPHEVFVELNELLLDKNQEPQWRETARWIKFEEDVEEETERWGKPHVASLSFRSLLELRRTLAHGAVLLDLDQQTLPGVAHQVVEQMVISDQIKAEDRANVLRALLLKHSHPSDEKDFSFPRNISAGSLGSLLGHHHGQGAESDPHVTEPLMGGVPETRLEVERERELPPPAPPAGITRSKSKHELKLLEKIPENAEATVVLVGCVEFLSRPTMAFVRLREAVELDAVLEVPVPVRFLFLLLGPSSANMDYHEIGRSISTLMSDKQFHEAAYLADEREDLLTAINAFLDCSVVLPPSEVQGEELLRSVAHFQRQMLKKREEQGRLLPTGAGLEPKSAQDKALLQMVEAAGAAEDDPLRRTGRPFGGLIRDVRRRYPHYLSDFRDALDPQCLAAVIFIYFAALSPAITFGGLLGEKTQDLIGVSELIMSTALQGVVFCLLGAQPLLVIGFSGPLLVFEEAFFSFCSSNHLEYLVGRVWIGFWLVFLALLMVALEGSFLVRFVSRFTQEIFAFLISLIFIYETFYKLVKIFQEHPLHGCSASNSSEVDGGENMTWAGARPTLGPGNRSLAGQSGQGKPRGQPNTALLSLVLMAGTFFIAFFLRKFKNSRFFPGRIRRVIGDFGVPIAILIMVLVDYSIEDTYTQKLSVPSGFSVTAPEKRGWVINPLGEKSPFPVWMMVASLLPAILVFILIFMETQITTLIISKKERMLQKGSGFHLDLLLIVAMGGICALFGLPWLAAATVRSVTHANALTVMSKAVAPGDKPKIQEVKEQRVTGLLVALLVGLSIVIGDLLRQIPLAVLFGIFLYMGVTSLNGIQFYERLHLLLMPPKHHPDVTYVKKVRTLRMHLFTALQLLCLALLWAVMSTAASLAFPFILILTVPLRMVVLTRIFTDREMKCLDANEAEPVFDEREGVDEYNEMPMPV
UniProt Q8IYB5: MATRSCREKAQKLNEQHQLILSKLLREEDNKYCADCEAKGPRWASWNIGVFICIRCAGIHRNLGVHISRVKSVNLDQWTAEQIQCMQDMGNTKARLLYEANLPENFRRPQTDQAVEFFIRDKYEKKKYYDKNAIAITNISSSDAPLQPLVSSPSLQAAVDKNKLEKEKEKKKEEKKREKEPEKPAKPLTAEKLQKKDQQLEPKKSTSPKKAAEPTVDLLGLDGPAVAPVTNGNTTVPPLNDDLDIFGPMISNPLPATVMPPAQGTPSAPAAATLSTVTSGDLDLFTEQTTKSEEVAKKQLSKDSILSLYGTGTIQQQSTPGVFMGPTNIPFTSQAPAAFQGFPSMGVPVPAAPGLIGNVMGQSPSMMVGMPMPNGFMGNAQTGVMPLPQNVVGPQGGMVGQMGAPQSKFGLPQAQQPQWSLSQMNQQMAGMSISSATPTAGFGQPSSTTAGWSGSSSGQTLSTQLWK
UniProt Q9HBR0: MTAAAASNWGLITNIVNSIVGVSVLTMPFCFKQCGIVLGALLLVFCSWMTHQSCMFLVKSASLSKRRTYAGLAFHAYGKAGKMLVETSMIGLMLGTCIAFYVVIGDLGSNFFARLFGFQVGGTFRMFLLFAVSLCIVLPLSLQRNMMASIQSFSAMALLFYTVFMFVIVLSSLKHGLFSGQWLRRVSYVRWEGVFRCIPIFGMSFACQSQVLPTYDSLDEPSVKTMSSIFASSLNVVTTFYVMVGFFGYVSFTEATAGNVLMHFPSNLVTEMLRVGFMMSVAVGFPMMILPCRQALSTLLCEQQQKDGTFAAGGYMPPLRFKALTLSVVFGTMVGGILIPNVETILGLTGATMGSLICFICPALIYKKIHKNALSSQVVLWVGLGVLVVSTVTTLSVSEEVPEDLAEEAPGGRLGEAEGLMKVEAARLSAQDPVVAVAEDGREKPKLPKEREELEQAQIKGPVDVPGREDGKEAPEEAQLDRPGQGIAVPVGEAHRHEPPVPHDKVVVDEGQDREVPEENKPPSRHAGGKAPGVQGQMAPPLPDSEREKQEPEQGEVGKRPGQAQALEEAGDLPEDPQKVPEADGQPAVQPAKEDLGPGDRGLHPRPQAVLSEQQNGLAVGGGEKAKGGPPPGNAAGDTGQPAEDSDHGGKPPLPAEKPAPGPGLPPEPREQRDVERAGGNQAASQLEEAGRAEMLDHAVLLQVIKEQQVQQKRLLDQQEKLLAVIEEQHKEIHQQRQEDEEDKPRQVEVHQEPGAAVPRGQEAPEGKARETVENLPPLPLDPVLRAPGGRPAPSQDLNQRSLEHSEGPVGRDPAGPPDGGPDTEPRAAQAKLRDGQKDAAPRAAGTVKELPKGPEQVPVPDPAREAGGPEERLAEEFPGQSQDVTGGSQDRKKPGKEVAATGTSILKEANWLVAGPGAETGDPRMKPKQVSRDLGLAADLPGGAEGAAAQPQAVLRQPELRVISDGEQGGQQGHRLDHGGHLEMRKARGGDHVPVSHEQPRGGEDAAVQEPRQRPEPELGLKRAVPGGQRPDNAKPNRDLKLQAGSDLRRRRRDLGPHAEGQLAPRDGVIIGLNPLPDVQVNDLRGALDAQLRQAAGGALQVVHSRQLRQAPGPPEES
UniProt Q00325: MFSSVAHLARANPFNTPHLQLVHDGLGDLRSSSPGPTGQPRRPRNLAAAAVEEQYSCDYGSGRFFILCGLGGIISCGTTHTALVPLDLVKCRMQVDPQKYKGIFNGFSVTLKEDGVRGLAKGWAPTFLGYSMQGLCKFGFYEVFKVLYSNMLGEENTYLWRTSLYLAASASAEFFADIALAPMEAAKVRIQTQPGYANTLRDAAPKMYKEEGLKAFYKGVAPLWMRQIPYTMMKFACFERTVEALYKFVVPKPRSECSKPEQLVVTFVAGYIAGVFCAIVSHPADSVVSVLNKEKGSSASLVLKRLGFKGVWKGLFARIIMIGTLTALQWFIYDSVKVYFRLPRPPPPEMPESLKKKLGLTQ
UniProt P19634, whole entry, looked up: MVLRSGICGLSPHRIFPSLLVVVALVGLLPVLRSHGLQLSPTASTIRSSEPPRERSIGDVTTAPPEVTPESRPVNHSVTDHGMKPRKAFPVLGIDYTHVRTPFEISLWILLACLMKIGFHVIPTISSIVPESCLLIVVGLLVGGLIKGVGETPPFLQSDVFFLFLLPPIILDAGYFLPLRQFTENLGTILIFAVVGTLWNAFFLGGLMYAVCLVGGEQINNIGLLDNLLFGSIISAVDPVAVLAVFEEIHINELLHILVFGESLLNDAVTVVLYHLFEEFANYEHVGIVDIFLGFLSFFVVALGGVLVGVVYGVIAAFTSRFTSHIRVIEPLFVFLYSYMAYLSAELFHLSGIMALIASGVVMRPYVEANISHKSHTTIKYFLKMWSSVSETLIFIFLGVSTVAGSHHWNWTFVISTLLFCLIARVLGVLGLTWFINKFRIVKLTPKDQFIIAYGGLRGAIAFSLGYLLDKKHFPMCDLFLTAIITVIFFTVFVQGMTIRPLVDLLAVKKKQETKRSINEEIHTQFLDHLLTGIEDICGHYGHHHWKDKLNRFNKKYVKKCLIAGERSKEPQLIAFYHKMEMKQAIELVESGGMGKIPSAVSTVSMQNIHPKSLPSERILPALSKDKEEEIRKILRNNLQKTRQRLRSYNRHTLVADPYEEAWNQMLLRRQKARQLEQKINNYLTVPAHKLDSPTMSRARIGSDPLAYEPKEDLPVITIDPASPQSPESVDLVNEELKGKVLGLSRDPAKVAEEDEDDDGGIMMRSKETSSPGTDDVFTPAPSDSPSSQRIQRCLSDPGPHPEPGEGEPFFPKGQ
UniProt P12236: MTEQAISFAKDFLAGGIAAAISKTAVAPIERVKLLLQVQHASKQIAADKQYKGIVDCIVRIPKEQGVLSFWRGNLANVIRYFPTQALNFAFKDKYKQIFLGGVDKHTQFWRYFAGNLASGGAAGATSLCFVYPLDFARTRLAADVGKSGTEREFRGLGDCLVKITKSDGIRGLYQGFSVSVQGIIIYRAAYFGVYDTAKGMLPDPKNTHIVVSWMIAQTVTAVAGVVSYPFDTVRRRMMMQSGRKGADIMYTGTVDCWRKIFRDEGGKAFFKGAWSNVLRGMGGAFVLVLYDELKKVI
UniProt Q9UJS0: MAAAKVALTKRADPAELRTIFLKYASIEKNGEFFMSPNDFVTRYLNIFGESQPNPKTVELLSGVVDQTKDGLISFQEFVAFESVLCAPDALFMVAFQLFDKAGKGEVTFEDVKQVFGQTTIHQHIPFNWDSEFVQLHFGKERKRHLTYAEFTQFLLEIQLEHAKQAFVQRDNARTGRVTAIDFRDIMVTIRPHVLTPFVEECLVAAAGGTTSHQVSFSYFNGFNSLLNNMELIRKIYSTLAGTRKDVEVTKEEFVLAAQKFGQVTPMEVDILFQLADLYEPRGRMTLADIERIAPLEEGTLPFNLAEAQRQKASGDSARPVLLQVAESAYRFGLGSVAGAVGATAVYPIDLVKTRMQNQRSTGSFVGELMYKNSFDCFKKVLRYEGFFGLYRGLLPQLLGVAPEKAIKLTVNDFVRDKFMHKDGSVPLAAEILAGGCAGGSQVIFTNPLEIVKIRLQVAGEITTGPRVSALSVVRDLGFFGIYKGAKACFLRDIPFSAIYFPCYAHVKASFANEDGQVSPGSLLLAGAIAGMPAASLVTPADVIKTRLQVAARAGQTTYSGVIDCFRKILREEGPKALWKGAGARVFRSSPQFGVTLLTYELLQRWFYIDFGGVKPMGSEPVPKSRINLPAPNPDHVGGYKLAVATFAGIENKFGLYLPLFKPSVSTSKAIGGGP
UniProt Q6NUK1: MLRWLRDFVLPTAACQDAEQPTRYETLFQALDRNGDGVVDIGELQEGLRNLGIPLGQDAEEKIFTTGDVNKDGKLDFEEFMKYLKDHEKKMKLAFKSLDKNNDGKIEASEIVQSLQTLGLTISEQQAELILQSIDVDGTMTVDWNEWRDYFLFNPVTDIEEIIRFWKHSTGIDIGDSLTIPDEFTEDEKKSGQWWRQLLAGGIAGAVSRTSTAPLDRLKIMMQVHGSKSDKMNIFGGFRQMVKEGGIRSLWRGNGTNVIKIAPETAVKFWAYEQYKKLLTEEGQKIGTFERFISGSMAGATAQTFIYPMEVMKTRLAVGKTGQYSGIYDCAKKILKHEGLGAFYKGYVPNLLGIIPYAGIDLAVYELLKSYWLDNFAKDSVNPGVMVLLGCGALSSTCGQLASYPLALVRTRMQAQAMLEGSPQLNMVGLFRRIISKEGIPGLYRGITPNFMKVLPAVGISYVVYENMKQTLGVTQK

What was measured:
Assay in all cases: log2 fold change, soluble protein after heating vs DMSO (PISA); higher = thermal stabilisation; K562 lysate, 10 uM; active = over 0.2 and 3.5 SD of the protein, either way, in both replicates (recomputed)
vemurafenib = compound: CCCS(=O)(=O)Nc1ccc(F)c(C(=O)c2c[nH]c3ncc(-c4ccc(Cl)cc4)cc23)c1F [vemurafenib]
Outline: (§1)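 K562 pellets were dounce-homogenised in PBS pH 7.4 containing 1 mM MgCl2, and the crude extract, at 1 mg/mL protein, was exposed to 10 μM compound for 30 min. Aliquots were heated for 3 min across 48°C-58°C, pooled, brought to 0.5% NP-40 at 4°C and spun at 21,000xg for 90 min, with the supernatant taken as soluble protein. TMTpro 16plex LC-MS/MS with equalised channel sums quantified that protein. Values are log-two fold changes in thermal stability relative to solvent controls, taken from duplicates.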

[1] = compound: CCCS(=O)(=O)Nc1ccc(F)c(C(=O)c2c[nH]c3ncc(Cl)cc23)c1F
Outline: as §1

barasertib = compound: CCN(CCCOc1ccc2c(Nc3cc(CC(=O)Nc4cccc(F)c4)[nH]n3)ncnc2c1)CCOP(=O)(O)O [barasertib]
Outline: as §1

[2] = compound: CC[C@@H]1C(=O)N(C)c2cnc(Nc3ccc(C(=O)NC4CCN(C)CC4)cc3OC)nc2N1C1CCCC1
Outline: as §1

volasertib = compound: CC[C@@H]1C(=O)N(C)c2cnc(Nc3ccc(C(=O)N[C@H]4CC[C@H](N5CCN(CC6CC6)CC5)CC4)cc3OC)nc2N1C(C)C [volasertib]
Outline: as §1

[3] = compound: CCn1c(C(=O)N(C2CC2)C2CC2)cc2c3c(ncn3C)c(Nc3cc(C)n(C)n3)nc21
Outline: as §1

[4] = compound: CCn1cc(-c2ccnc3[nH]c(-c4cccc(CN(C)C)c4)cc23)c(-c2ccc(NC(=O)N(C)C)cc2)n1
Outline: as §1

[5] = compound: CN1CCC(CNc2ccc3ncc(-c4cccc(OC(F)(F)F)c4)n3n2)CC1
Outline: as §1

saracatinib = compound: CN1CCN(CCOc2cc(OC3CCOCC3)c3c(Nc4c(Cl)ccc5c4OCO5)ncnc3c2)CC1 [saracatinib]
Outline: as §1

sotrastaurin = compound: CN1CCN(c2nc(C3=C(c4c[nH]c5ccccc45)C(=O)NC3=O)c3ccccc3n2)CC1 [sotrastaurin]
Outline: as §1

alvocidib = compound: CN1CC[C@H](c2c(O)cc(O)c3c(=O)cc(-c4ccccc4Cl)oc23)[C@H](O)C1 [alvocidib]
Outline: as §1

Tubastatin A = compound: CN1CCc2c(c3ccccc3n2Cc2ccc(C(=O)NO)cc2)C1 [Tubastatin A]
Outline: as §1

[6] = compound: CNC(=O)C1=CC=CC=C1NC2=NC(=NC=C2Cl)NC3=C(C=C(C=C3)N4CCOCC4)OC
Outline: as §1

defactinib = compound: CNC(=O)c1ccc(Nc2ncc(C(F)(F)F)c(NCc3nccnc3N(C)S(C)(=O)=O)n2)cc1 [defactinib]
Outline: as §1

[7] = compound: CNc1nc(-c2ccc3c(N)n[nH]c3c2)cc(N2C[C@@H](C(=O)NC3CCCCC3)CC[C@H]2C)n1
Outline: as §1

encorafenib = compound: COC(=O)N[C@@H](C)CNc1nccc(-c2cn(C(C)C)nc2-c2cc(Cl)cc(NS(C)(=O)=O)c2F)n1 [encorafenib]
Outline: as §1

[8] = compound: COC(=O)[C@H](CCSC)NC(=O)C1=C(C=C(C=C1)NC[C@H](CS)N)C2=CC=CC=C2
Outline: as §1

alisertib = compound: COc1cc(Nc2ncc3c(n2)-c2ccc(Cl)cc2C(c2c(F)cccc2OC)=NC3)ccc1C(=O)O [alisertib]
Outline: as §1

[9] = compound: COc1cc2nc(-c3cc(F)ccc3O)nc(N[C@@H]3CNC[C@H]3C(C)(C)O)c2cc1OC
Outline: as §1

gefitinib = compound: COc1cc2ncnc(Nc3ccc(F)c(Cl)c3)c2cc1OCCCN1CCOCC1 [gefitinib]
Outline: as §1

Target | log2 fold change (vemurafenib) | log2 fold change [1] | log2 fold change (barasertib) | log2 fold change [2] | log2 fold change (volasertib) | log2 fold change [3] | log2 fold change [4] | log2 fold change [5] | log2 fold change (saracatinib) | log2 fold change (sotrastaurin) | log2 fold change (alvocidib) | log2 fold change (Tubastatin A) | log2 fold change [6] | log2 fold change (defactinib) | log2 fold change [7] | log2 fold change (encorafenib) | log2 fold change [8] | log2 fold change (alisertib) | log2 fold change [9] | log2 fold change (gefitinib)
SLC7A5 (UniProt Q01650) | inactive: -0.027 | inactive: -0.017 | inactive: -0.038 | inactive: -0.031 | inactive: 0.06 | inactive: -0.001 | active: -0.312 | inactive: 0.183 | inactive: 0.056 | inactive: 0.046 | inactive: -0.142 | inactive: 0.012 | inactive: -0.047 | inactive: -0.044 | inactive: 0.046 | inactive: -0.001 | inactive: -0.084 | inactive: -0.002 | inactive: 0.021 | inactive: 0.006
SLC7A6 (UniProt Q92536) | inactive: 0.06 | inactive: 0.018 | inactive: -0.002 | inactive: 0.048 | inactive: 0.049 | inactive: -0.044 | inactive: -0.077 | inactive: 0.127 | inactive: -0.02 | inactive: 0.015 | inactive: -0.085 | inactive: 0.055 | inactive: -0.121 | inactive: -0.013 | inactive: 0.03 | inactive: 0.091 | inactive: -0.02 | inactive: -0.092 | inactive: 0.016 | inactive: 0.225
SLC4A2 (UniProt P04920) | inactive: 0.005 | inactive: 0.002 | inactive: -0.023 | inactive: 0.03 | inactive: -0.023 | inactive: 0.015 | inactive: -0.018 | inactive: 0.041 | inactive: 0.022 | inactive: 0.039 | inactive: 0.016 | inactive: -0.024 | inactive: -0.022 | inactive: 0.058 | inactive: 0.026 | inactive: -0.008 | inactive: -0.154 | inactive: 0.009 | inactive: -0.001 | inactive: 0.087
SLC26A6 (UniProt Q9BXS9) | inactive: 0.106 | inactive: 0.086 | active: 0.421 | inactive: 0.055 | inactive: 0.008 | inactive: 0.017 | inactive: -0.095 | inactive: 0.036 | inactive: -0.126 | inactive: 0.005 | inactive: -0.095 | inactive: -0.05 | inactive: -0.004 | inactive: 0.055 | inactive: 0.086 | inactive: -0.016 | inactive: -0.111 | inactive: 0.06 | inactive: -0.056 | inactive: -0.022
SLC30A9 (UniProt Q6PML9) | inactive: -0.005 | inactive: 0.024 | inactive: 0.015 | inactive: 0.07 | inactive: 0.018 | inactive: 0.056 | active: -0.534 | inactive: 0.079 | inactive: 0.034 | inactive: -0.056 | inactive: 0 | inactive: 0.022 | inactive: 0.002 | inactive: 0.064 | inactive: 0.023 | inactive: 0.032 | inactive: 0.05 | inactive: -0.008 | inactive: -0.079 | inactive: -0.01
SMAP1 isoform 2 (UniProt Q8IYB5) | inactive: -0.011 | inactive: 0.083 | inactive: -0.019 | inactive: 0.171 | inactive: 0.07 | inactive: -0.011 | inactive: 0.043 | inactive: -0.001 | inactive: 0.029 | inactive: -0.078 | inactive: -0.032 | inactive: -0.009 | inactive: -0.001 | inactive: -0.025 | inactive: 0.001 | inactive: 0.028 | inactive: -0.046 | inactive: 0.003 | inactive: -0.017 | inactive: 0.007
SLC38A10 (UniProt Q9HBR0) | inactive: 0.1 | inactive: -0.008 | inactive: 0.014 | inactive: 0.111 | inactive: -0.015 | inactive: -0.022 | active: -0.229 | inactive: 0.022 | inactive: 0.024 | inactive: 0.015 | inactive: -0.036 | inactive: 0.074 | inactive: -0.015 | inactive: 0.023 | inactive: 0.04 | inactive: 0.037 | inactive: -0.06 | inactive: -0.032 | inactive: 0.032 | inactive: -0.046
SLC25A3 isoform 2 (UniProt Q00325) | inactive: -0.006 | inactive: 0.001 | inactive: -0.018 | inactive: 0.011 | inactive: 0.037 | inactive: -0.031 | inactive: -0.104 | inactive: 0.046 | inactive: 0.03 | inactive: -0.005 | inactive: -0.056 | inactive: 0.038 | inactive: 0.01 | inactive: -0.01 | inactive: 0.037 | inactive: 0.008 | inactive: -0.012 | inactive: 0.014 | inactive: 0.013 | inactive: -0.001
SLC9A1 (UniProt P19634) | inactive: 0.023 | inactive: 0.141 | inactive: -0.09 | inactive: -0.032 | inactive: 0.071 | inactive: -0.148 | inactive: -0.012 | inactive: 0.022 | inactive: 0.011 | inactive: -0.031 | inactive: 0.004 | inactive: 0.176 | inactive: 0.038 | inactive: -0.039 | inactive: 0.028 | inactive: -0.007 | inactive: -0.037 | inactive: 0.012 | inactive: 0.029 | inactive: -0.133
SLC43A1 (UniProt O75387) | inactive: 0.039 | inactive: 0.025 | inactive: -0.047 | inactive: -0.031 | inactive: 0.006 | inactive: 0.002 | inactive: -0.008 | inactive: -0.008 | inactive: -0.084 | inactive: 0.016 | inactive: -0.03 | inactive: 0 | inactive: -0.031 | inactive: 0.012 | inactive: 0.07 | inactive: 0.015 | inactive: -0.015 | inactive: 0.076 | inactive: 0.024 | inactive: -0.022
SLC25A15 (UniProt Q9Y619) | inactive: 0.009 | inactive: -0.003 | inactive: -0.004 | inactive: 0.031 | inactive: 0.031 | inactive: 0.004 | inactive: -0.084 | inactive: 0.038 | inactive: -0.01 | inactive: 0.027 | inactive: -0.021 | inactive: -0.054 | inactive: 0.051 | inactive: 0.027 | inactive: 0.027 | inactive: -0.022 | inactive: 0.009 | inactive: 0.002 | inactive: 0.025 | inactive: 0.031
SMAP (UniProt O00193) | inactive: -0.044 | inactive: 0.025 | inactive: -0.032 | inactive: -0.034 | inactive: -0.007 | inactive: -0.004 | inactive: -0.024 | inactive: 0.068 | inactive: -0.007 | inactive: -0.014 | inactive: 0.04 | inactive: 0.022 | inactive: 0.02 | inactive: 0 | inactive: 0.055 | inactive: -0.017 | inactive: -0.027 | inactive: 0.02 | inactive: 0.021 | inactive: -0.031
SLC25A6 (UniProt P12236) | inactive: -0.012 | inactive: 0.011 | inactive: -0.033 | inactive: -0.026 | inactive: 0.041 | inactive: -0.011 | inactive: -0.113 | inactive: 0.024 | inactive: 0.006 | inactive: 0.022 | inactive: -0.011 | inactive: 0.051 | inactive: 0.022 | inactive: -0.014 | inactive: 0.031 | inactive: -0.009 | inactive: 0.067 | inactive: 0.064 | inactive: 0.012 | inactive: 0
SLC25A13 isoform 2 (UniProt Q9UJS0) | inactive: 0.013 | inactive: -0.002 | inactive: -0.008 | inactive: 0.026 | inactive: 0.016 | inactive: -0.022 | inactive: -0.098 | inactive: 0.036 | inactive: -0.003 | inactive: 0.029 | inactive: 0.009 | inactive: 0.041 | inactive: -0.014 | inactive: 0.015 | inactive: 0.013 | inactive: 0.012 | inactive: 0.024 | inactive: 0.005 | inactive: 0.012 | inactive: 0.01
SLC25A24 (UniProt Q6NUK1) | inactive: -0.024 | inactive: -0.008 | inactive: -0.015 | inactive: 0.025 | inactive: 0.019 | inactive: 0.002 | inactive: -0.028 | inactive: -0.007 | inactive: -0.005 | inactive: 0.017 | inactive: 0.031 | inactive: 0 | inactive: -0.003 | inactive: 0.023 | inactive: 0.009 | inactive: 0.001 | inactive: 0.007 | inactive: -0.009 | inactive: 0.012 | inactive: 0.011
